Results: patent US20110021746A1 (published 2011)
No constants are given. Whether binding was seen depends on the method and setting. Some binding calls cover weakened binding; strength is not graded here.

Protein sequences, listed by entry. Tags and fused reporters are not part of them. Residues count along the entry.
UniProt P30530, residues 26-449: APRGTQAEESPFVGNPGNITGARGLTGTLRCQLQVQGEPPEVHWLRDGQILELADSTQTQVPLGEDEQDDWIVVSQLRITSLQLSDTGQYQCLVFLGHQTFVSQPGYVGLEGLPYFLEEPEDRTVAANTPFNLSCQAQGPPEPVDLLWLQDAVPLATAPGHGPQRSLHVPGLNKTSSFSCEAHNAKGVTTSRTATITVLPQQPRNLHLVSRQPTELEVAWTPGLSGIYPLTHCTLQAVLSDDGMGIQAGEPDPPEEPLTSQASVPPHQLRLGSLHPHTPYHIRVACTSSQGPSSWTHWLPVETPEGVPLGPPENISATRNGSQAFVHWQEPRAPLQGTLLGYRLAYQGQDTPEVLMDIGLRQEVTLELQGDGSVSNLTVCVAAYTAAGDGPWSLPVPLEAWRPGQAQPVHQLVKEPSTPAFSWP

Molecular target: Axl (UniProt P30530)
Test: phage display selection

Row | Binder | binding
1 | SEQ ID NO 407 (designed binder) NVSPPRRARVTDATETTITIRWTLAGSQFIGFQVDAVPANGQTPIQRTIDGSVHVYTITGLQPGTDYKIYLYTLSKRLETSSPVVIDAST | binds
2 | SEQ ID NO 417 (designed binder) NVSPPRRARVTDATETTITIRWKAPQSDFQVDAVPANGQTPIQRTIKRSATIYTITGLQPGTDYKIYLYTLNDNARSSPVVIDAST | binds
3 | SEQ ID NO 415 (designed binder) NVSPPRRARVTDATETTITIRWKIPGFQVDAVPANGQTPIQRTINRGITTYTITGLQPGTDYKIYLYTLNDNARSSPVVIDAST | binds
4 | SEQ ID NO 418 (designed binder) NVSPPRRARVTDATETTITIRWQALGFQVDAVPANGQTPIQRTIARNAPAYTITGLQPGTDYKIYLYTLNDNARSSPVVIDAST | binds
5 | SEQ ID NO 419 (designed binder) NVSPPRRARVTDATETTITIRWRVLGFQVDAVPANGQTPIQRTIHRGVNVYTITGLQPGTDYKIYLYTLNDNARSSPVVIDAST | binds
6 | SEQ ID NO 416 (designed binder) NVSPPRRARVTDATETTITIRWTLTGFQVDAVPANGQTPIQRTIKRSANVYTITGLQPGTDYKIYLYTLNDNARSSPVVIDAST | binds
7 | SEQ ID NO 401 (designed binder) NVSPPRRARVTDATETTITISWRTKTETITGFQVDAVPANGQTPIQRTIATGARVYTITGLQPGTDYKIYLYTLTGYGVGTHASSPVVIDAST | binds
8 | SEQ ID NO 404 (designed binder) NVSPPRRARVTDATETTITISWRTKTETITGFQVDAVPANGQTPIQRTINSNAHIYTITGLQPGTDYKIYLYTLNGYGVGTVTSSPVVIDAST | binds
9 | SEQ ID NO 405 (designed binder) NVSPPRRARVTDATETTITISWRTKTETITGFQVDAVPANGQTPIQRTINRNAHAYTITGLQPGTDYKIYLYTLTGYGVGTFASSPVVIDAST | binds
10 | SEQ ID NO 412 (designed binder) NVSPPRRARVTDATETTITISWRTKTETITGFQVDAVPANGQTPIQRTIATAKRVYTITGLQPGTDYKIYLYTLTGYGVGEVRSSPVVIDAST | binds
11 | SEQ ID NO 403 (designed binder) NVSPPRRARVTDATETTITISWRTKTETITGFQVDAVPANGQTPIQRTIATGARVYTITGLQPGTDYKIYLYTLTGYGVGTYSSSPVVIDAST | binds
12 | SEQ ID NO 406 (designed binder) NVSPPRRARVTDATETTITISWRTKTETITGFQVDAVPANGQTPIQRTINSGAHSYTITGLQPGTDYKIYLYTLTMYGVGEVRSSPVVIDAST | binds
13 | SEQ ID NO 413 (designed binder) NVSPPRRARVTDATETTITISWRTKTETITGFQVDAVPANGQTPIQRTIAAAVHTYTITGLQPGTDYKIYLYTLTGYGVGQVGSSPVVIDAST | binds
14 | SEQ ID NO 410 (designed binder) NVSPPRRARVTDATETTITISWRTKTETITGFQVDAVPANGQTPIQRTINAGARTYTITGLQPGTDYKIYLYTLTGYGVGTFGSSPVVIDAST | binds
15 | SEQ ID NO 409 (designed binder) NVSPPRRARVTDATETTITISWRTKTETITGFQVDAVPANGQTPIQRTINSAAHAYTITGLQPGTDYKIYLYTLNGYGVGTLASSPVVIDAST | binds
16 | SEQ ID NO 408 (designed binder) NVSPPRRARVTDATETTITISWRTKTETITGFQVDAVPANGQTPIQRTIATAKRVYTITGLQPGTDYKIYLYTLTGYGVGEYRSSPVVIDAST | binds
17 | SEQ ID NO 411 (designed binder) NVSPPRRARVTDATETTITISWRTKTETITGFQVDAVPANGQTPIQRTIATGARVYTITGLQPGTDYKIYLYTLTGYGVGASASSPVVIDAST | binds
18 | SEQ ID NO 402 (designed binder) NVSPPRRARVTDATETTITISWRTKTETITGFQVDAVPANGQTPIQRTIASTVNTYTITGLQPGTDYKIYLYTLYKVRATSSPVVIDAST | binds
19 | SEQ ID NO 414 (designed binder) NVSPPRRARVTDATETTITISWLTKTETITGFQVDAVPANGQTPIQRTIHAGAHIYTITGLQPGTDYKIYLYTLNGFGNGEFTSSPVVIDAST | binds

The remaining lines, values ahead:

Row | binding | Binder
20 | binds | SEQ ID NO 431 (designed binder) NVSPPRRARVTDATETTITIRWSQIDRFQVDAVPANGQTPIQRTIKSDVHIYTITGLQPGTDYKIYLYTLNDNARSSPVVIDAST
21 | binds | SEQ ID NO 433 (designed binder) NVSPPRRARVTDATETTITIRWALPRSEFTRFQVDAVPANGQTPIQRTITSNIRGYTITGLQPGTDYKIYLYTLNDNARSSPVVIDAST
22 | binds | SEQ ID NO 437 (designed binder) NVSPPRRARVTDATETTITIRWKLPEGDFQVDAVPANGQTPIQRTIKRNASTYTITGLQPGTDYKIYLYTLNDNARSSPVVIDAST
23 | binds | SEQ ID NO 432 (designed binder) NVSPPRRARVTDATETTITIRWASQINGFQVDAVPANGQTPIQRTIKRTIHVYTITGLQPGTDYKIYLYTLNDNARSSPVVIDAST
24 | binds | SEQ ID NO 434 (designed binder) NVSPPRRARVTDATETTITIRWQQYINGFQVDAVPANGQTPIQRTIARDAPTYTITGLQPGTDYKIYLYTLNDNARSSPVVIDAST
25 | binds | SEQ ID NO 436 (designed binder) NVSPPRRARVTDATETTITIRWELPAGTVNGFQVDAVPANGQTPIQRTIKGAKRGYTITGLQPGTDYKIYLYTLNDNARSTPVVIDAST
26 | binds | SEQ ID NO 435 (designed binder) NVSPPRRARVTDATETTITIRWQLPGFQVDAVPANGQTPIQRTIKRAANVYTITGLQPGTDYKIYLYTLNDNARSSPVVIDAST
27 | binds | SEQ ID NO 440 (designed binder) NVSPPRRARVTDATETTITIRWKVPGFQVDAVPANGQTPIQRTITRGVRGYTITGLQPGTDYKIYLYTLNDNARSSPVVIDAST
28 | binds | SEQ ID NO 438 (designed binder) NVSPPRRARVTDATETTITIRWGIPGFQVDAVPANGQTPIQRTIKRAISAYTITGLQPGTDYKIYLYTLNDNARSSPVVIDAST
29 | binds | SEQ ID NO 423 (designed binder) NVSPPRRARVTDATETTITIRWRGPRFQVDAVPANGQTPIQRTIDAGTRGYTITGLQPGTDYKIYLYTLNDNARSSPVVIDAST
30 | binds | SEQ ID NO 430 (designed binder) NVSPPRRARVTDATETTITIRWGVLGFQVDAVPANGQTPIQRTINRSVRAYTITGLQPGTDYKIYLYTLNDNARSSPVVIDAST
31 | binds | SEQ ID NO 424 (designed binder) NVSPPRRARVTDATETTITIRWAIPGFQVDAVPANGQTPIQRTITRGARAYTITGLQPGTDYKIYLYTLNDNARSSPVVIDAST
32 | binds | SEQ ID NO 426 (designed binder) NVSPPRRARVTDATETTITIRWKVPGFQVDAVPANGQTPIQRTITRGTRVYTITGLQPGTDYKIYLYTLNDNARSSPVVIDAST
33 | binds | SEQ ID NO 421 (designed binder) NVSPPRRARVTDATETTITITWTLPHFQVDAVPANGQTPIQRTIDRGTRAYTITGLQPGTDYKIYLYTLNDNARSSPVVIDAST
34 | binds | SEQ ID NO 439 (designed binder) NVSPPRRARVTDATETTITIRWGVLGFQVDAVPANGQTPIQRTIKRAINSYTITGLQPGTDYKIYLYTLNDNARSSPVVIDAST
35 | binds | SEQ ID NO 428 (designed binder) NVSPPRRARVTDATETTITIRWAAPGFQVDAVPANGQTPIQRTIHRTAPSYTITGLQPGTDYKIYLYTLNDNARSSPVVIDAST
36 | binds | SEQ ID NO 429 (designed binder) NVSPPRRARVTDATETTITIRWPVNGFQVDAVPANGQTPIQRTINRGVRTYTITGLQPGTDYKIYLYTLNDNARSSPVVIDAST
37 | binds | SEQ ID NO 441 (designed binder) NVSPPRRARVTDATETTITISWRTKTETITGFQVDAVPANGQTPIQRTINSAAHSYTITGLQPGTDYKIYLYTLTGYGVGAVGSSPVVIDAST
38 | binds | SEQ ID NO 420 (designed binder) NVSPPRRARVTDATETTITISWRTKTETITGFQVDAVPANGQTPIQRTINSGARSYTITGLQPGTDYKIYLYTLTGYGVGQDASSPVVIDAST
39 | binds | SEQ ID NO 427 (designed binder) NVSPPRRARVTDATETTITISWKKPKHNGGTGVTSFQVDAVPANGQTPIQRTIKPDVRSYTITGLQPGTDYKIYLYTLNKRRNSSSPVVIDAST
40 | binds | SEQ ID NO 422 (designed binder) NVSPPRRARVTDATETTITITWPLGFQVDAVPANGQTPIQRTIKRGVSSYTITGLQPGTDYKIYLYTLNDNARSSPVVIDAST
